Values of other authors, collected in PMC8193821 (Annals of the New York Academy of Sciences, 2019).

System: Friedreich Ataxia patients’ iPSC-derived neurons
Conditions: hypothesis test; ref Codazzi F. et al. (2016) Hum Mol Genet

## Cc1ccc(C(=O)NCCCCCC(=O)Nc2ccccc2N)cc1 [HDAC inhibitor 109]
  FXN (frataxin): ↑FXN (frataxin)
